According to article PMC3640950:
Results are given in words; binding and its absence hold for the method and conditions named. Binding seen in cells or lysates may run through a third protein. Some results given as binding are weak or reduced against the parent protein; the word gives no strength. For some of these results: Where a sequence is shown, tags or fusion partners need not be part of it.

The chains behind the UniProt entries cited, without tags or fusion partners. Where a name states a change or a piece, a line headed by the entry shows the natural chain unless it says otherwise.
UniProt Q9H0K1: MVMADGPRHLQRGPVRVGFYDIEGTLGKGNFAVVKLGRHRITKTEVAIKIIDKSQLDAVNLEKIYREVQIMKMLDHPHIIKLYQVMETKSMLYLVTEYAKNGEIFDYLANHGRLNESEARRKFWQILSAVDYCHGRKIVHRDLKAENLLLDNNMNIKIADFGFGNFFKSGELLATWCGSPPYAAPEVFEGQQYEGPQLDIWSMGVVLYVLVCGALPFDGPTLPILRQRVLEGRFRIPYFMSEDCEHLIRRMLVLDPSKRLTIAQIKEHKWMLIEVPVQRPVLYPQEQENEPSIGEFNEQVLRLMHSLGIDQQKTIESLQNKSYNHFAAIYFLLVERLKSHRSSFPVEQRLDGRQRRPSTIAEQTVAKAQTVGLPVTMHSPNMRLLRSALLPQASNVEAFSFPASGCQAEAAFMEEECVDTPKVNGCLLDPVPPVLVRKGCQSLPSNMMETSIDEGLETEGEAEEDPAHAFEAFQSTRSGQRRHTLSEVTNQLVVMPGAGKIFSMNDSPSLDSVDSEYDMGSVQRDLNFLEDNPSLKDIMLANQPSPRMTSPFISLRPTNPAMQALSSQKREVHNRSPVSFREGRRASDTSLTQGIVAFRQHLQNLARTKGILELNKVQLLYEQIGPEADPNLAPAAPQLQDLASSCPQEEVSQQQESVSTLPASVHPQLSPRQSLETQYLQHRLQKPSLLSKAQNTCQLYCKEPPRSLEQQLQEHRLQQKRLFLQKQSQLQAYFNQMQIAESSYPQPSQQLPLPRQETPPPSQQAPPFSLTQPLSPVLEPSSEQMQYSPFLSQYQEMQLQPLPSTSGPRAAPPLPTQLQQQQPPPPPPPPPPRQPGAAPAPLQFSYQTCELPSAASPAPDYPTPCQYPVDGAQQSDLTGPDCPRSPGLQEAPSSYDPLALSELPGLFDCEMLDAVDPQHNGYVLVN
UniProt P57059: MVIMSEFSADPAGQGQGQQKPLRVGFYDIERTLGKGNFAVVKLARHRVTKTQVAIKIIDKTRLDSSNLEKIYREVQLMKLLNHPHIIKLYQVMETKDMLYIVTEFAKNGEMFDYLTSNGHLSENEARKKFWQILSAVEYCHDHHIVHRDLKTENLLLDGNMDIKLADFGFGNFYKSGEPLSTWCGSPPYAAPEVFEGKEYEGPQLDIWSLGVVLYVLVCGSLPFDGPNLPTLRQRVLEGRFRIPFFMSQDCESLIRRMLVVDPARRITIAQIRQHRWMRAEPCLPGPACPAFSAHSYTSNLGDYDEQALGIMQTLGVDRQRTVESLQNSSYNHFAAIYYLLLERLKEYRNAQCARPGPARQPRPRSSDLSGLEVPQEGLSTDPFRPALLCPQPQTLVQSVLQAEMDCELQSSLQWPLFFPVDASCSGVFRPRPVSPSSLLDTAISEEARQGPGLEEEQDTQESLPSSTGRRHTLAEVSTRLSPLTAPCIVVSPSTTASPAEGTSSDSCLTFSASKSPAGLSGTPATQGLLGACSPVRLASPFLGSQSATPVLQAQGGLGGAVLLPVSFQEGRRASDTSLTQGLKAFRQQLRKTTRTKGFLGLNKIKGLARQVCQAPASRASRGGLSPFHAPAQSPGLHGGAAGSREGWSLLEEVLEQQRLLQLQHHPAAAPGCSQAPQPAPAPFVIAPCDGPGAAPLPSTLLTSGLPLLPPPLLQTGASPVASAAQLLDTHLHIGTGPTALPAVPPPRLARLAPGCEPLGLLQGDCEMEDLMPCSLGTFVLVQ

How the values were obtained:
[1] = target: GST-SIK2 (pEBG-SIK2) (UniProt Q9H0K1); assay: pull-down; HEK293T cells co-transfected with pEBG-SIK2 or pEBG-SIK3 and pCAG-Tax-V5; GST-SIK2/3 pulled down from the cleared lysate with glutathione Sepharose 4B, 2 hr at 4°C; blot with anti-Tax
[2] = target: Flag-SIK1-K56M (kinase-defective mutant, pCMV-Tag2-SIK1-K56M) (UniProt P57059); assay: co-IP; HEK293T cells co-transfected with pCMV-Tag2-LKB1 or pCMV-Tag2-SIK1 and pCAG-Tax-V5; Flag-LKB1/SIK1 precipitated with mouse anti-Flag (M2) and protein G agarose, 2 hr at 4°C, buffer 20 mM Tris-HCl pH 7.5, 100 mM NaCl, 0.5 mM EDTA, 0.5% NP-40; blot with anti-Tax
[3] = target: T1, Flag-LKB1 wild type (pCMV-Tag2-LKB1) (UniProt Q15831); assay: as above
T1 sequence: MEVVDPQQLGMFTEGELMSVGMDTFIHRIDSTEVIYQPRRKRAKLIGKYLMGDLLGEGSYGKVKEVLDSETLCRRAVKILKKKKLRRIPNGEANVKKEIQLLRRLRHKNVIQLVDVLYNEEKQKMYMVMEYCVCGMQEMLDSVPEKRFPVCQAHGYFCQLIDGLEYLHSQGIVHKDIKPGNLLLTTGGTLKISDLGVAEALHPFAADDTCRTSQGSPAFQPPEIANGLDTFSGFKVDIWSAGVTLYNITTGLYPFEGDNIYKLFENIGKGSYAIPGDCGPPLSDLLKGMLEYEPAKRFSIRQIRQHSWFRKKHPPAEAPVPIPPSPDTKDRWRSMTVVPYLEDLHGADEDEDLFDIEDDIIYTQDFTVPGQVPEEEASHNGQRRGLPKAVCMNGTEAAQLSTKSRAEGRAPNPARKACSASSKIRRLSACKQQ

[4] = target: Flag-SIK1 wild type (pCMV-Tag2-SIK1) (UniProt P57059); assay: as above

In the case of “Tax-V5 (HTLV-1 Tax oncoprotein expressed from pCAG-Tax-V5) (from UniProt P03409 1-353)”, the binding [1] is reported as “binds”, the binding [2] is reported as “no binding” and the binding [3] is reported as “binds”. For the same substance, the binding [4] was “binds”.
